Measurements from patent US20190298681A1.
No constants are given. Whether binding was seen depends on the method and setting. Some entries that bind do so weakly or less than the wild type.

By UniProt entry, the sequences of proteins in these tests, tags left out. Residues count along the entry.
UniProt P29317, residues 24-976: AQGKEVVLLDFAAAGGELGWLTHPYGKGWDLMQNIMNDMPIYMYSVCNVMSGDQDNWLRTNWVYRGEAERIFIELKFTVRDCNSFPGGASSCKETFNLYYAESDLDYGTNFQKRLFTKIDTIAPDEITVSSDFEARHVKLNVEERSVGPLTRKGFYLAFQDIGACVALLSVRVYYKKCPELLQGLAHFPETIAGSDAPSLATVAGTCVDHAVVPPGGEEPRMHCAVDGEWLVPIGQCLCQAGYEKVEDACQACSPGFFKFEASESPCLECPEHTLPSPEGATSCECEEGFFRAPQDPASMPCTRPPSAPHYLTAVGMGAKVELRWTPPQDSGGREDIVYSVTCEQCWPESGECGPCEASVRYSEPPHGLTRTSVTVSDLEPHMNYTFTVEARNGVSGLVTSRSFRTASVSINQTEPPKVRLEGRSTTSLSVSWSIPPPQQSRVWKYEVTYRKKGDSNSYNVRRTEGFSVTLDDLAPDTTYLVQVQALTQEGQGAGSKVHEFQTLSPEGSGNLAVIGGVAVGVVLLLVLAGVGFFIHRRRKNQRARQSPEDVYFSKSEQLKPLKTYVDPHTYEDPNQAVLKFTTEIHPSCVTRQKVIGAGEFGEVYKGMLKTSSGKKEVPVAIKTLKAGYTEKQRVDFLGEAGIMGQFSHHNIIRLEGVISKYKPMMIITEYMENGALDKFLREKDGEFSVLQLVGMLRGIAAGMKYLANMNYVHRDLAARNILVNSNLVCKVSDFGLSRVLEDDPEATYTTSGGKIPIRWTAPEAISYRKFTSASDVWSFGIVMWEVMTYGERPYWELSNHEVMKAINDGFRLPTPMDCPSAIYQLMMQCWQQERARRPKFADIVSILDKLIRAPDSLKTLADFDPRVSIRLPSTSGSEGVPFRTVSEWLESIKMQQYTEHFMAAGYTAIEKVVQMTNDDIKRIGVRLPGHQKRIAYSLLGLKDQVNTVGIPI

Columns and labels:
[1] = molecular target: Ephrin type-A receptor 2 (EphA2), human (human) (UniProt P29317); experiment: liposome-cell association, flow cytometry, 34 cell lines
[2] = molecular target: Ephrin type-A receptor 2 (EphA2), human (human) (UniProt P29317); experiment: liposome-cell association, flow cytometry on a panel of cell lines
[3] = molecular target: Ephrin type-A receptor 2 (EphA2), human (human) (UniProt P29317); experiment: liposome-cell association, flow cytometry of DiI5-labelled liposomes on cancer cell lines, 4 h 37 C

Measured: binding

B1: 40scFv-ILs (immunoliposome carrying the anti-EphA2 scFv of SEQ ID NO:40) (scFv)
scFv: QVQLVQSGGGLVQPGGSLRLSCAASGFTFSSYAMHWVRQAPGKGLEWVAVISYDGSNKYYADSVKGRFTISRDNSKNTLYLQMNSLRAEDTAVYYCARASVGATGPFDIWGQGTLVTVSSASTGGGGSGGGGSGGGGSGGGGSSSELTQPPSVSVAPGQTVTITCQGDSLRSYYASWYQQKPGTAPKLLIYGENNRPSGVPDRFSGSSSGTSASLTITGAQAEDEADYYCNSRDSSGTHLTVFGGGTKLTVLGGGSGGC
binds: all assays above
